The text below walks through data of patent US20030148445A1 (NATIONAL JEWISH MEDICAL AND RESEARCH CENTER, published 2003).

By UniProt entry, the sequences of proteins in these tests, tags left out.
UniProt O00463: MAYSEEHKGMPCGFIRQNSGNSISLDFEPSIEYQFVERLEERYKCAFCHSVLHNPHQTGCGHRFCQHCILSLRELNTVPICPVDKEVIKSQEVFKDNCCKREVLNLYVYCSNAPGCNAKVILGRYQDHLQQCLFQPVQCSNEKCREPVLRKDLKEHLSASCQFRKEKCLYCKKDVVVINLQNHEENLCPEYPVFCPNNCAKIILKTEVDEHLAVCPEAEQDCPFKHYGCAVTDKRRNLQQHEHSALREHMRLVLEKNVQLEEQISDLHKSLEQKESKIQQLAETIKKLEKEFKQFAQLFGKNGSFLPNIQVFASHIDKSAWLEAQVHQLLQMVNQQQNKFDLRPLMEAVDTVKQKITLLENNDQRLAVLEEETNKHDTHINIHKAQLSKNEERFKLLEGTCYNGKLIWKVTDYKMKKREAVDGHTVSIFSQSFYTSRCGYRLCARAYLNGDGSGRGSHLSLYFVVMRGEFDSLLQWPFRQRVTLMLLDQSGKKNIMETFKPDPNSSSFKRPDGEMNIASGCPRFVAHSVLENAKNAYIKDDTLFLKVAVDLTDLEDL

The target of experiment [1] is TRAF5 (UniProt O00463). In words: co-immunoprecipitation with anti-Flag antibody, Western blot with anti-HA antibody. On the technique in general: Immunoblotting shows a protein as a band on a membrane.
Experiment [2] has as its target TRAF5 (UniProt O00463). The experiment in a line: co-immunoprecipitation, Western blot (legend of FIG. 10B).

No constants are given. Whether binding was seen depends on the method and setting. In cells and extracts the contact can be indirect. Some entries that bind do so weakly or less than the wild type.

B1: C-terminal HA epitope-tagged BCMA (BCMA-HA) (receptor, not shown: small tags and cut ends)
chain: MLQMAGQCSQNEYFDSLLHACIPCQLRCSSNTPPLTCQRYCNASVTNSVKGTNAILWTCLGLSLIISLAVFVLMFLLRKISSEPLKDEFKNTGSGLLGMANIDLEKSRTGDEIILPRGLEYTVEECTCEDCIKSKPKVDSDHCFPLPAMEEGATILVTTKTNDYCKSLPAALSATEIEKSISAR
notes: also called HA-BCMA; B Cell Maturation Protein
For B1, the binding entry in the experiment with TRAF5 [1] and in the experiment with TRAF5 [2] was “binds” throughout.
